Our source for the binding values is paper PMC3584105, “Acute BDNF Treatment Upregulates GluR1-SAP97 and GluR2-GRIP1 Interactions: Implications for Sustained AMPA Receptor Expression” (PLoS ONE, 2013).

Sequences of proteins named here, by UniProt entry; tags and fusion partners are left off. Residues count along the entry.
UniProt Q62696: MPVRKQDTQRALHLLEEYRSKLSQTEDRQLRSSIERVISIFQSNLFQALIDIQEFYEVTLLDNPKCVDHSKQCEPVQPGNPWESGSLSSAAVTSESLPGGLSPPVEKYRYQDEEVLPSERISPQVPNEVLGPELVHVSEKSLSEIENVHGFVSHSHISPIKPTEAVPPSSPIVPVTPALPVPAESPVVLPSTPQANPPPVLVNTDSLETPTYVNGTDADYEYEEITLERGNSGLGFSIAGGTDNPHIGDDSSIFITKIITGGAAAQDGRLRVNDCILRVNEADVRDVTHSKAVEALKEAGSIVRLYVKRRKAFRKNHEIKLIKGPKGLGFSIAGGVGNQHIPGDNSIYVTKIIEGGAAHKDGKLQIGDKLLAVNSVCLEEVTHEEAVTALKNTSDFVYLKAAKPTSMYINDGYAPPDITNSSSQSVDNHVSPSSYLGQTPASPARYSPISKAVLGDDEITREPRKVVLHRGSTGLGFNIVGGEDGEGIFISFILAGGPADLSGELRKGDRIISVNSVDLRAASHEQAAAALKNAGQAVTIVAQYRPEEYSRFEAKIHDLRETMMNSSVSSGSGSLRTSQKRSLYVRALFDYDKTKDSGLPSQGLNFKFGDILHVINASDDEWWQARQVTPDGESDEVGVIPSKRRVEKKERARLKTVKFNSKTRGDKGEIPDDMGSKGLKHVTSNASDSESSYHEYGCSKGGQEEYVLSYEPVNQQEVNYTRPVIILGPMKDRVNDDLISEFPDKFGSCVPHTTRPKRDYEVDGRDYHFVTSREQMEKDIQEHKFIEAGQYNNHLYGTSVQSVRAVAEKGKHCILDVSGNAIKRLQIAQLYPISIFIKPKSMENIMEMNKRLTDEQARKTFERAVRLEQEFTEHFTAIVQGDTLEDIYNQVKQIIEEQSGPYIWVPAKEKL
UniProt P97879: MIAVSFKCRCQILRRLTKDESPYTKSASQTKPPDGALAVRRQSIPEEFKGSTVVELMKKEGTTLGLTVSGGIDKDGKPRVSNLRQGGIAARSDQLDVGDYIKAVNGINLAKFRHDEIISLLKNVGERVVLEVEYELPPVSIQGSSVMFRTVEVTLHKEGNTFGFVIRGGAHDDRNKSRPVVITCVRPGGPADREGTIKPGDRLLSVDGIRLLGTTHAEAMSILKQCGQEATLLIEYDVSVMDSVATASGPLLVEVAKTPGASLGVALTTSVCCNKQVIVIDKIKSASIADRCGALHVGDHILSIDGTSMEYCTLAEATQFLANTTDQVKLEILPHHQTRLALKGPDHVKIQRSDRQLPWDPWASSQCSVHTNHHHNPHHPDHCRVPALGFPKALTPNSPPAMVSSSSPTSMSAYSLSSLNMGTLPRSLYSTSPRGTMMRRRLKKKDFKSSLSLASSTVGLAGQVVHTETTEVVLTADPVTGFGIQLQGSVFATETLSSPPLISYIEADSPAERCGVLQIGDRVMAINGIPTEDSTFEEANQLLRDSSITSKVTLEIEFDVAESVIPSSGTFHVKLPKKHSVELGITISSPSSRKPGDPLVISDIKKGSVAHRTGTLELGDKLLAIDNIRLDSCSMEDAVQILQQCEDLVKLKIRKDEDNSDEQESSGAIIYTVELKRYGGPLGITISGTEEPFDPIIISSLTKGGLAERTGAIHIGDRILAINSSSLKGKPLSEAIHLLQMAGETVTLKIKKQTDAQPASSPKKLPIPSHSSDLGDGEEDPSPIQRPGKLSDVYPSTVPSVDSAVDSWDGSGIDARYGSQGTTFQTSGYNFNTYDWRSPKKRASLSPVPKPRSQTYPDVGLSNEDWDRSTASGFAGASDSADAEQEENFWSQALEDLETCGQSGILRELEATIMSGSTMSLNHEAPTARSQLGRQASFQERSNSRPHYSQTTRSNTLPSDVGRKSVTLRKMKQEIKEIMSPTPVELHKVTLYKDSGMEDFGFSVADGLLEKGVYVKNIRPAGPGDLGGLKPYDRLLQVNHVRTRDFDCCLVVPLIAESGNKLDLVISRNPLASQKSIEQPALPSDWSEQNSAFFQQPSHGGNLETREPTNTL
UniProt P19490, residues 19-907: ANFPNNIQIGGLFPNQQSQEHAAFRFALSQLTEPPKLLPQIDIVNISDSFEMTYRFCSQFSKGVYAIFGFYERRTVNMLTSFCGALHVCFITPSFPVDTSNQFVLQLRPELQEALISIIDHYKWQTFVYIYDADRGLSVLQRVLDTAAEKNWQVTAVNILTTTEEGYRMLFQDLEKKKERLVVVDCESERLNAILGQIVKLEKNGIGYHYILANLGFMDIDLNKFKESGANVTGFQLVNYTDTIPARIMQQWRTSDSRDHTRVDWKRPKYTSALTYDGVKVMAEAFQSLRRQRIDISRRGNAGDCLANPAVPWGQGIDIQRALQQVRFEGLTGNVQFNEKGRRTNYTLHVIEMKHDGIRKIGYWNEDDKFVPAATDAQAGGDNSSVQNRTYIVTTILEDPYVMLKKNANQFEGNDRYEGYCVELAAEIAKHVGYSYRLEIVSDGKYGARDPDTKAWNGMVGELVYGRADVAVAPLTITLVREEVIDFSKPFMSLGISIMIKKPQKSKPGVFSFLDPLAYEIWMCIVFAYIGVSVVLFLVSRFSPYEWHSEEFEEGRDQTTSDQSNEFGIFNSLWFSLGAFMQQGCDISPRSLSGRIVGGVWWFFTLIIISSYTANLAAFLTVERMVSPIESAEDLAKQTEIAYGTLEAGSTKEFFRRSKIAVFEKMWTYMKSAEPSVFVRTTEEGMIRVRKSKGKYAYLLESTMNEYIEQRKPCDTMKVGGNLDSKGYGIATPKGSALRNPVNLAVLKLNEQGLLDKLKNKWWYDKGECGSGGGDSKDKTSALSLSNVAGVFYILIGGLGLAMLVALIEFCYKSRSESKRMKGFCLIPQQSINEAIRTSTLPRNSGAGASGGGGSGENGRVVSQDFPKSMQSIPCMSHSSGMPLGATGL
UniProt P19491, residues 22-883: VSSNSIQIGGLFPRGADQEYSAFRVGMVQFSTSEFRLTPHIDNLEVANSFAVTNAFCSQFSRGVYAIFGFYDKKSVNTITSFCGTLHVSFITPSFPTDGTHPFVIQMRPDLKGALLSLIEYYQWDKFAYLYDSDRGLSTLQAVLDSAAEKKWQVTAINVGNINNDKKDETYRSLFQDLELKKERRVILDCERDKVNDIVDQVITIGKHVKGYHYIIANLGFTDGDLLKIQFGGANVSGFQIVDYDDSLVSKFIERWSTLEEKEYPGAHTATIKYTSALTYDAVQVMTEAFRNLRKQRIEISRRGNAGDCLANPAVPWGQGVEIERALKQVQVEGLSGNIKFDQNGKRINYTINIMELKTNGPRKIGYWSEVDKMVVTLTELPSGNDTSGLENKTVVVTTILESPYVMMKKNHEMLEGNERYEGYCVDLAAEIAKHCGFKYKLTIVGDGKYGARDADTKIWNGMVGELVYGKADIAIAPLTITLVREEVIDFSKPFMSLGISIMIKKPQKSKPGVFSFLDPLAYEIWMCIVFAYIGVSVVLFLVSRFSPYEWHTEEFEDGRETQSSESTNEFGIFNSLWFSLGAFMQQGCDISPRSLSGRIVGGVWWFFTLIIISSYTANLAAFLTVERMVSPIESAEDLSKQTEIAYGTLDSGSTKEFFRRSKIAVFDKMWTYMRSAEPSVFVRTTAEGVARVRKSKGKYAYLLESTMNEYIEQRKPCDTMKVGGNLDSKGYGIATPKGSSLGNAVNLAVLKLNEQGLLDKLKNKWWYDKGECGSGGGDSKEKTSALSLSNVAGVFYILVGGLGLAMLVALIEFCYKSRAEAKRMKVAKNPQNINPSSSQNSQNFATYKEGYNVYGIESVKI

The target in experiment [1] is synapse-associated protein of 97 kDa (SAP97) (rat (endogenous in cultured neocortical neurons)) (UniProt Q62696). The experiment is described as follows: co-IP; as a1, the vehicle-treated (no BDNF) neurons alone; anti-SAP97 precipitate probed with anti-GluR1.
Experiment [2] shares this target. Kind of experiment: co-IP; lysate of DIV 14 cultured rat cortical neurons treated with BDNF (1 h, 50 ng/ml) or not; immunoprecipitation buffer with 1% deoxycholate, pH 7.5; anti-SAP97 or anti-GRIP1 pre-adsorbed to Protein A/Protein G-sepharose, overnight at 4°C; blots probed with anti-GluR1 or anti-GluR2.
Experiment [3] has as its target glutamate receptor-interacting protein1 (GRIP1) (rat (endogenous in cultured neocortical neurons)) (UniProt P97879). The experiment is described as above.
The target in experiment [4] is GRIP1 (expressed in HEKTrkB cells) (UniProt P97879). Kind of experiment: co-IP; lysate of HEKTrkB cells co-transfected with GluR2 and GRIP1, treated with BDNF (1 h, 50 ng/mL) or not; precipitation with anti-N-terminal GluR2 and blot with anti-GRIP1, or precipitation with anti-GRIP1 and blot with anti-C-terminal GluR2/3.

These are yes or no findings as the source states them, for the method shown. In cells and extracts the contact can be indirect. Some entries that bind do so weakly or less than the wild type.

Take “AMPA receptor subunit GluR1 (from UniProt P19490-1 19-907)”: the binding entry is reported as “binds weakly” in experiment [1] and “binds” in experiment [2].
With “AMPA receptor subunit GluR2 (from UniProt P19491 22-883)”, the binding result in experiment [3] is reported as “binds”.
On to “GluR2 (wild type, full length, expressed in HEKTrkB cells) (from UniProt P19491 22-883) (receptor)”, for which the binding result in experiment [4] was “binds”.
